Laboratory results: PubChem BioAssay AID504764 (Drosophila RNAi Screening Center, 2011)
Assay: 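Genes whose knock-down alters Notch-dependent transcription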 (primary screen). Cell system: Drosophila Kc167 cells. Knock-down reagent: long dsRNA against Drosophila genes. Duration: about 5 days (4 days dsRNA, then 24 h after transfection). Conditions: transfection of constitutively active membrane-tethered Notch lacking the extracellular domain, read 24 h later. Detection: 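Firefly luciferase from an E(spl)m3 reporter with active Notch, plus control-promoter and uninduced reporter wells for normalisation; unnormalised counts, duplicate wells a and b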. Reading the numbers: induced reporter light, run 1, well a and induced reporter light, run 1, well b: higher = more light from the Notch target reporter with active Notch; control promoter light, run 1, well a and control promoter light, run 1, well b: higher = more light from the viral control promoter (cell number, transfection, viability); uninduced reporter light, run 1, well a: higher = more light from the Notch target reporter without active Notch. Active means: 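Hit if the duplicate-averaged log2 ratio of induced to control-promoter light gives a plate-wise z beyond ±2, or induced to uninduced beyond ±1.8; weak-control or discordant-duplicate wells dropped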. Calls: active = modifier hit (raised or lowered Notch signal); inactive = not a hit.
The deposit covers about 22,000 reagents; shown is an unselected part of those with a known target gene and a result. In the full data, 403 (1.9%) are marked active. 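Unnormalised raw counts per well; ratio z-scores behind the hit calls and whether each hit raises or lowers signal are not deposited.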 The numbers tell different reagents against one gene apart. The record does not give: the amount of reagent.

CG5877 → induced reporter light, run 1, well a: 2.79e5; induced reporter light, run 1, well b: 2.00e5; control promoter light, run 1, well a: 2.45e5; control promoter light, run 1, well b: 2.53e5; uninduced reporter light, run 1, well a: 17015; call: inactive
Aldh7A1 → induced reporter light, run 1, well a: 1.13e5; induced reporter light, run 1, well b: 1.22e5; control promoter light, run 1, well a: 72445; control promoter light, run 1, well b: 75165; uninduced reporter light, run 1, well a: 7695; call: inactive
CG12947 → induced reporter light, run 1, well a: 82485; induced reporter light, run 1, well b: 1.18e5; control promoter light, run 1, well a: 1.04e5; control promoter light, run 1, well b: 74445; uninduced reporter light, run 1, well a: 9250; call: inactive
Hers #1 → induced reporter light, run 1, well a: 1.47e5; induced reporter light, run 1, well b: 1.29e5; control promoter light, run 1, well a: 90445; control promoter light, run 1, well b: 50565; uninduced reporter light, run 1, well a: 9845; call: inactive
Hers #2 → induced reporter light, run 1, well a: 73935; induced reporter light, run 1, well b: 96005; control promoter light, run 1, well a: 87295; control promoter light, run 1, well b: 1.07e5; uninduced reporter light, run 1, well a: 8360; call: inactive
UbcE2H → induced reporter light, run 1, well a: 2.55e5; induced reporter light, run 1, well b: 1.93e5; control promoter light, run 1, well a: 3.22e5; control promoter light, run 1, well b: 3.31e5; uninduced reporter light, run 1, well a: 12438; call: inactive
CG31288 → induced reporter light, run 1, well a: 1.58e5; induced reporter light, run 1, well b: 1.32e5; control promoter light, run 1, well a: 1.80e5; control promoter light, run 1, well b: 1.99e5; uninduced reporter light, run 1, well a: 12690; call: inactive

Reprinted from the listing for reference:
Aldh7A1 → induced reporter light, run 1, well a: 1.13e5; induced reporter light, run 1, well b: 1.22e5; control promoter light, run 1, well a: 72445; control promoter light, run 1, well b: 75165; uninduced reporter light, run 1, well a: 7695; call: inactive
CG12947 → induced reporter light, run 1, well a: 82485; induced reporter light, run 1, well b: 1.18e5; control promoter light, run 1, well a: 1.04e5; control promoter light, run 1, well b: 74445; uninduced reporter light, run 1, well a: 9250; call: inactive

Continued.
Tudor-SN → induced reporter light, run 1, well a: 53910; induced reporter light, run 1, well b: 53380; control promoter light, run 1, well a: 1.22e5; control promoter light, run 1, well b: 1.45e5; uninduced reporter light, run 1, well a: 4092; call: inactive
CG11902 → induced reporter light, run 1, well a: 1.46e5; induced reporter light, run 1, well b: 1.82e5; control promoter light, run 1, well a: 1.69e5; control promoter light, run 1, well b: 2.23e5; uninduced reporter light, run 1, well a: 13665; call: inactive
pinta → induced reporter light, run 1, well a: 1.59e5; induced reporter light, run 1, well b: 1.42e5; control promoter light, run 1, well a: 1.21e5; control promoter light, run 1, well b: 1.48e5; uninduced reporter light, run 1, well a: 15125; call: inactive
CG13300 → induced reporter light, run 1, well a: 53325; induced reporter light, run 1, well b: 38045; control promoter light, run 1, well a: 21870; control promoter light, run 1, well b: 20445; uninduced reporter light, run 1, well a: 4810; call: inactive
CG7443 → induced reporter light, run 1, well a: 1.04e5; induced reporter light, run 1, well b: 79710; control promoter light, run 1, well a: 82675; control promoter light, run 1, well b: 70145; uninduced reporter light, run 1, well a: 4475; call: inactive
CG17230 → induced reporter light, run 1, well a: 99725; induced reporter light, run 1, well b: 1.15e5; control promoter light, run 1, well a: 58930; control promoter light, run 1, well b: 57075; uninduced reporter light, run 1, well a: 6975; call: inactive
Gyf → induced reporter light, run 1, well a: 37045; induced reporter light, run 1, well b: 41025; control promoter light, run 1, well a: 43665; control promoter light, run 1, well b: 43835; uninduced reporter light, run 1, well a: 3482; call: inactive
par-1 #1 → induced reporter light, run 1, well a: 75055; induced reporter light, run 1, well b: 86560; control promoter light, run 1, well a: 1.36e5; control promoter light, run 1, well b: 1.24e5; uninduced reporter light, run 1, well a: 7640; call: inactive
par-1 #2 → induced reporter light, run 1, well a: 36420; induced reporter light, run 1, well b: 32555; control promoter light, run 1, well a: 35035; control promoter light, run 1, well b: 34880; uninduced reporter light, run 1, well a: 3140; call: inactive
par-1 #3 → induced reporter light, run 1, well a: 1.47e5; induced reporter light, run 1, well b: 1.31e5; control promoter light, run 1, well a: 2.76e5; control promoter light, run 1, well b: 2.80e5; uninduced reporter light, run 1, well a: 12090; call: inactive
par-1 #4 → induced reporter light, run 1, well a: 22920; induced reporter light, run 1, well b: 19635; control promoter light, run 1, well a: 16590; control promoter light, run 1, well b: 25660; uninduced reporter light, run 1, well a: 2485; call: inactive
par-1 #5 → induced reporter light, run 1, well a: 1.41e5; induced reporter light, run 1, well b: 99000; control promoter light, run 1, well a: 1.48e5; control promoter light, run 1, well b: 1.22e5; uninduced reporter light, run 1, well a: 10085; call: inactive
